Experimental findings from article PMC11140966 are described below.

Protein sequences, listed by entry. Tags and fused reporters are not part of them.
UniProt Q61545: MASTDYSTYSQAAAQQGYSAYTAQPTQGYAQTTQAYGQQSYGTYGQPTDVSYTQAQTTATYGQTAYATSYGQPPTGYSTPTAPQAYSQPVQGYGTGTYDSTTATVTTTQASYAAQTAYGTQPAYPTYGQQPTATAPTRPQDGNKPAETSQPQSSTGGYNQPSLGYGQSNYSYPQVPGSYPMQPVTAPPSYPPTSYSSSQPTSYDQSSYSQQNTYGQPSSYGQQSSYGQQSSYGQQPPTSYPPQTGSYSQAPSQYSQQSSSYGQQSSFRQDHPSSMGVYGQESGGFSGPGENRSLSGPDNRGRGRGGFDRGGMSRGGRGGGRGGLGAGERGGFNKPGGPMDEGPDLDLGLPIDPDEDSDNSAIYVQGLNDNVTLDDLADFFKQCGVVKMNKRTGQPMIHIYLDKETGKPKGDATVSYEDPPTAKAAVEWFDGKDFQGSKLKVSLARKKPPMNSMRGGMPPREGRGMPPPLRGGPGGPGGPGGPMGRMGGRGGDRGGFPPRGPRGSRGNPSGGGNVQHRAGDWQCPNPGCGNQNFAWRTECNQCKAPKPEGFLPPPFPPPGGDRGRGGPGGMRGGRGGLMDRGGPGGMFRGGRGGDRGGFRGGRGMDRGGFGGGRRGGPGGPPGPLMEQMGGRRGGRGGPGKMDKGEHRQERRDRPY
UniProt Q61879: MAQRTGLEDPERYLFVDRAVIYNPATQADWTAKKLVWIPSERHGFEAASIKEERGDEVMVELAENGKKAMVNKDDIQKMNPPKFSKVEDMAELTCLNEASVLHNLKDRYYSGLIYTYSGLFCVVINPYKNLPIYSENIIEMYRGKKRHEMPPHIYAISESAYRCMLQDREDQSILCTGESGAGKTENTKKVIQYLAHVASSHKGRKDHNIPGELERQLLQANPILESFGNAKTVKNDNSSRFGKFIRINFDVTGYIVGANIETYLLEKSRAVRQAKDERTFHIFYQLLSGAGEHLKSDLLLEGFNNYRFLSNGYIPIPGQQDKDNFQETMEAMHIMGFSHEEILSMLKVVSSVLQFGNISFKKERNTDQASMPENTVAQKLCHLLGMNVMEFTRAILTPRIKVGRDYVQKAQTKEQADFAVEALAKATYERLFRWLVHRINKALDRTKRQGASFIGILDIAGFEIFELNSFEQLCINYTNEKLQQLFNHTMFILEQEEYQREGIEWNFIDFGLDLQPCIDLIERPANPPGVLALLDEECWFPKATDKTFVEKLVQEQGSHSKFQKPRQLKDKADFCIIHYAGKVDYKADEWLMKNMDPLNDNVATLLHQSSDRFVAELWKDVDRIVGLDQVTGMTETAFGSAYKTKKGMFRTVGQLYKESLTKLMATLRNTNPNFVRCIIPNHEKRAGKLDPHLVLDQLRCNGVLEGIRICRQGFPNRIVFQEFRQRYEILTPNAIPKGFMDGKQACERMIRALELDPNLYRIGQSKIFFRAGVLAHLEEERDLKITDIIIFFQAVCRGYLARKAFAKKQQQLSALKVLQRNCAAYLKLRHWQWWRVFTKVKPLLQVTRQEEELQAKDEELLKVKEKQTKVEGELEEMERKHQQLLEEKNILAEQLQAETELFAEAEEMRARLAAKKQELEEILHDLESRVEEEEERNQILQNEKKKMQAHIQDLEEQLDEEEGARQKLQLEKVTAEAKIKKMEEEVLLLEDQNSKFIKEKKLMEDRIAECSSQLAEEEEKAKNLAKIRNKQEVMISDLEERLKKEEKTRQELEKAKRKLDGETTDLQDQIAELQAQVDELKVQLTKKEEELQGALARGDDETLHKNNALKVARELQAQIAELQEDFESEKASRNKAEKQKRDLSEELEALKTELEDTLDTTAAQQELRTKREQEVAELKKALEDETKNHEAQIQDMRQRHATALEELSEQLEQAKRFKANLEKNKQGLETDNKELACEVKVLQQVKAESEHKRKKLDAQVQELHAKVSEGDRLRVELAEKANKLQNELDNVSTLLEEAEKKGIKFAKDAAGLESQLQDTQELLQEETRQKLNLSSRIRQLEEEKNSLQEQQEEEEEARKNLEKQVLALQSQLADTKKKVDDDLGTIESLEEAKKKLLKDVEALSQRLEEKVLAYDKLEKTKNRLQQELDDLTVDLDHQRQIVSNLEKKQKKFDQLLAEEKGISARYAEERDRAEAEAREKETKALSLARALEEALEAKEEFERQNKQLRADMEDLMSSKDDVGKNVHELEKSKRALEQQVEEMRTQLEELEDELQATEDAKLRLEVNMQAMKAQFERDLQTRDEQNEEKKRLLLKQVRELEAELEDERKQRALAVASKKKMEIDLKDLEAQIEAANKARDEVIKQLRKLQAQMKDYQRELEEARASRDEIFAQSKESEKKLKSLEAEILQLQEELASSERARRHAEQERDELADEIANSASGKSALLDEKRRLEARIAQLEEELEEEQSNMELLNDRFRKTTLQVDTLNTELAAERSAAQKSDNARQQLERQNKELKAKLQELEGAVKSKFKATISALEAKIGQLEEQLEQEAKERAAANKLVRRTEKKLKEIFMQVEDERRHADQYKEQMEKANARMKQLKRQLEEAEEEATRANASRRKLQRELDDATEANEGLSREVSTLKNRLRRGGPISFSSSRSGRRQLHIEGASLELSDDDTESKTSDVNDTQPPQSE

Results are given in words; binding and its absence hold for the method and conditions named. In cells and extracts the contact can be indirect. Here binding means that the protein was enriched with, or labelled near, the bait; the list need not be complete.

For this experiment, the target named is T1, Helicase for meiosis 1 (HFM1), endogenous in embryonic mouse ovary (mouse (endogenous in embryonic mouse ovary)) (UniProt D3Z4R1).
T1 sequence: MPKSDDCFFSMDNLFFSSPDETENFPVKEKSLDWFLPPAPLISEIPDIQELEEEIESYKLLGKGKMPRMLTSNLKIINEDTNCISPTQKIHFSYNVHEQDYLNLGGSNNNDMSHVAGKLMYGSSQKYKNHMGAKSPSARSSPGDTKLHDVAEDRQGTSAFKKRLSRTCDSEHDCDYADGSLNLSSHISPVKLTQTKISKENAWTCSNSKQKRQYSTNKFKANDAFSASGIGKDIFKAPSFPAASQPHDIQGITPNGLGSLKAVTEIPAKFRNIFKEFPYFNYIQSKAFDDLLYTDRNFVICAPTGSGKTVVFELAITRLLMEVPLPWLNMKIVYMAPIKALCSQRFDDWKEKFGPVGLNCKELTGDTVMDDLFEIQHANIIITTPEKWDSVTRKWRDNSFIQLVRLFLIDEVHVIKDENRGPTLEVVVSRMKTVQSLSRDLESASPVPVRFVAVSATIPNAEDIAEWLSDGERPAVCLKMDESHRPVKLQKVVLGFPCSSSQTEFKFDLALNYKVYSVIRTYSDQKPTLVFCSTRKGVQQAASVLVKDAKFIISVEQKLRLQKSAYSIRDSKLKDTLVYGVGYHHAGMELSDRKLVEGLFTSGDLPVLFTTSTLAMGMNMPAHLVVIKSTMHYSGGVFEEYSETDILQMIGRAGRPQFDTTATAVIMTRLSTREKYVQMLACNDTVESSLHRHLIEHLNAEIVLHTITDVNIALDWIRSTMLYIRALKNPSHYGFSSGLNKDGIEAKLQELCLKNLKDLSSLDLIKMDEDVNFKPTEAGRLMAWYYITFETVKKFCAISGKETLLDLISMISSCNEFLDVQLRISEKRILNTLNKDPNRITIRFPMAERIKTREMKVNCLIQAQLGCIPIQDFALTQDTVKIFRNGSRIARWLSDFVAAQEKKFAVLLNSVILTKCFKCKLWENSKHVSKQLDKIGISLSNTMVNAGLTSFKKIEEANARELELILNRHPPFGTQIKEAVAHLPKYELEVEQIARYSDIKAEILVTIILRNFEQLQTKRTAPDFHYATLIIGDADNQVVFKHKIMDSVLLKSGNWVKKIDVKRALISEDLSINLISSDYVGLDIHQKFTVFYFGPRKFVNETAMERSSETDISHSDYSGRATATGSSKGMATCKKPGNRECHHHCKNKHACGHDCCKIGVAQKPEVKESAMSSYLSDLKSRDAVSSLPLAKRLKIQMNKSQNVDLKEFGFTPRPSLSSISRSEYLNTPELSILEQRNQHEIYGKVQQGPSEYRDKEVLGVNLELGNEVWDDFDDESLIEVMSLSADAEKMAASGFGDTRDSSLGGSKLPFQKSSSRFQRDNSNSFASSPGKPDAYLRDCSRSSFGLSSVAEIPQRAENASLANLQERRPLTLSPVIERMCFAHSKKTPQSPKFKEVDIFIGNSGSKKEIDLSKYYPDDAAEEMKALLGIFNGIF
Kind of experiment: affinity purification with mass spectrometry; HFM1-IP on Protein A/G magnetic beads from digested 17.5 dpc mouse ovaries, 1 h at room temperature; eluted proteins analysed by silver stain and mass spectrometry.

With EWS (from UniProt Q61545 1-655), the binding entry was “binds”.
Under GCAB stands “binds”; under IGHG3, “binds”.
In the case of MYH10 (from UniProt Q61879 1-1976) it was “binds”.

B1: CAPR1 (protein, UniProt Q60865 1-707)
chain: MPSATSHSGSGSKSSGPPPPSGSSGSEAAAGAAAPASQHPATGTGAVQTEAMKQILGVIDKKLRNLEKKKGKLDDYQERMNKGERLNQDQLDAVSKYQEVTNNLEFAKELQRSFMALSQDIQKTIKKTARREQLMREEAEQKRLKTVLELQYVLDKLGDDDVRTDLKQGLSGVPILSEEELSLLDEFYKLVDPERDMSLRLNEQYEHASIHLWDLLEGKEKPVCGTTYKALKEIVERVFQSNYFDSTHNHQNGLCEEEEAASAPTVEDQVAEAEPEPAEEYTEQSEVESTEYVNRQFMAETQFSSGEKEQVDEWTVETVEVVNSLQQQPQAASPSVPEPHSLTPVAQSDPLVRRQRVQDLMAQMQGPYNFIQDSMLDFENQTLDPAIVSAQPMNPTQNMDMPQLVCPQVHSESRLAQSNQVPVQPEATQVPLVSSTSEGYTASQPLYQPSHATEQRPQKEPMDQIQATISLNTDQTTASSSLPAASQPQVFQAGTSKPLHSSGINVNAAPFQSMQTVFNMNAPVPPANEPETLKQQSQYQATYNQSFSSQPHQVEQTELQQDQLQTVVGTYHGSQDQPHQVPGNHQQPPQQNTGFPRSSQPYYNSRGVSRGGSRGARGLMNGYRGPANGFRGGYDGYRPSFSNTPNSGYSQSQFTAPRDYSGYQRDGYQQNFKRGSGQSGPRGAPRGRGGPPRPNRGMPQMNTQQVN
With B1, the binding entry is “binds”.
